Test results: doi:10.1101/2020.01.21.912428
Results are given in words; binding and its absence hold for the method and conditions named. In cells and extracts the contact can be indirect. Some results given as binding are weak or reduced against the parent protein; the word gives no strength. Where a sequence is shown, tags or fusion partners need not be part of it.

Biological target: T1, dTBCE-GFP expressed in Drosophila embryos (Drosophila melanogaster) (UniProt A1Z6J5)
T1 sequence: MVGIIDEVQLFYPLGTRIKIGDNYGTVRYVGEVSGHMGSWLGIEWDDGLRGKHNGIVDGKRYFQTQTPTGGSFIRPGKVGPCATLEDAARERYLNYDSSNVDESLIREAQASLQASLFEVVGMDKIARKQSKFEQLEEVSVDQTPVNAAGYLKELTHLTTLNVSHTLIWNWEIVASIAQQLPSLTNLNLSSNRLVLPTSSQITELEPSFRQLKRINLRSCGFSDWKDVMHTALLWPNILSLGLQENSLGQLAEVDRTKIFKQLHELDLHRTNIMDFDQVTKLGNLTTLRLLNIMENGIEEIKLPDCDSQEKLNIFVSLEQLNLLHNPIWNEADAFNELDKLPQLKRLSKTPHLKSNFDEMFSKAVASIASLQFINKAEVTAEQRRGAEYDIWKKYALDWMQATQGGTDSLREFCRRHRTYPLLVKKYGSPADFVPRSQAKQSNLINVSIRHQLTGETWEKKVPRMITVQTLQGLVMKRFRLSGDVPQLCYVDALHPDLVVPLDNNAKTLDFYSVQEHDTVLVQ
Assay: co-IP

Ran (from UniProt Q9VZ23 1-216) was tested, and the binding was “binds”.
